Results from paper doi:10.1101/2022.01.04.474920.
Results are given in words; binding and its absence hold for the method and conditions named. In cells and extracts the contact can be indirect. A result given as binding can be weak or reduced; the word gives no strength. Tags and fused reporters may be left off the sequences shown.

Molecular target: T1, zebrafish Npas4l-V5 (zebrafish) (UniProt P0DOC7)
T1 sequence: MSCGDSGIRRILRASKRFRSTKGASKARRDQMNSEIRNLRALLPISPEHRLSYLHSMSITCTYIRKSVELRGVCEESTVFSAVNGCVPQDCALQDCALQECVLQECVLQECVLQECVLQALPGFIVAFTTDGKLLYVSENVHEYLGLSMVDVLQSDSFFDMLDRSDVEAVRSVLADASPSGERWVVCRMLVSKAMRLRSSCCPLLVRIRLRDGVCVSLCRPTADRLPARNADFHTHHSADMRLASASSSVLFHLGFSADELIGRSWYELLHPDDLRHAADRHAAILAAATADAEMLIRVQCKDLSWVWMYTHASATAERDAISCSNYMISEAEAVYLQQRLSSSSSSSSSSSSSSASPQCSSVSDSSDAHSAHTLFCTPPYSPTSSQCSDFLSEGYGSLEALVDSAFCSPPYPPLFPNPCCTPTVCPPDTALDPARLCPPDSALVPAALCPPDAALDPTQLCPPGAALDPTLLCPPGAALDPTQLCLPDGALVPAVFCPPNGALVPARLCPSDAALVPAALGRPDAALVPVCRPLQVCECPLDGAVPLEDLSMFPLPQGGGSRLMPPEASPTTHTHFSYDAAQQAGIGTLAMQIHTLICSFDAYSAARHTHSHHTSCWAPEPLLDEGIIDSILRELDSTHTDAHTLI
Test: co-IP

In the case of zebrafish Arnt1-myc, the binding was “binds”.
